Measured values taken from the M2OR odorant receptor database.
Where a chain is given by its changes, count along the chain named. The entries are a selection whose mix differs from that of the whole data set. The calls were merged from several studies; some rest on single wells. This is one part of the list.

Chains of the proteins cited; added tags and fusions are not shown. Chains listed by the source or under a name are the forms on record and can include a tag or linker.
OR2J3, as listed by the source: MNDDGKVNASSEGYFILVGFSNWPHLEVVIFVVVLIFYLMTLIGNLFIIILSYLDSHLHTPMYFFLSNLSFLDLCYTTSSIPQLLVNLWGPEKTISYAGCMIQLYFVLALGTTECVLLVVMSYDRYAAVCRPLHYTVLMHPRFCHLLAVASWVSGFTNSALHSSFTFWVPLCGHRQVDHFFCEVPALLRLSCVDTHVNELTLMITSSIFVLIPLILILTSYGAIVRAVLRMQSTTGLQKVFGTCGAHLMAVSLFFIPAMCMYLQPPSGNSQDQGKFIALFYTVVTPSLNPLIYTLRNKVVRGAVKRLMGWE
OR2M2, as listed by the source: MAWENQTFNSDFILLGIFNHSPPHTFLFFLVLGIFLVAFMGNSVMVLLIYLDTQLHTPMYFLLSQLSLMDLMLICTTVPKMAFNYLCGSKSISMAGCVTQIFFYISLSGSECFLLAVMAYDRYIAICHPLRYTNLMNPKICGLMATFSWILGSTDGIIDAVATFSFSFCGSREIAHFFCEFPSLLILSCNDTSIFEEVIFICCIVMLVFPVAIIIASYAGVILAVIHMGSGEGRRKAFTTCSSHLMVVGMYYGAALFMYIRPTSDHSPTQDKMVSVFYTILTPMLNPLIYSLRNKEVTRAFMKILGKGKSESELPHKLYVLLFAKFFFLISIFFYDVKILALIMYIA

Tests used:
Settings in all cases: stereoisomer not certain
OR2J3 [1] = system: OR2J3
In short: (§1)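 Assay methods differ from source to source, frequently being transient luciferase assays in mammalian cell lines. For each receptor–molecule pair, the label responsive (active) applies when the original authors judged the measured signal statistically different from baseline, and non-responsive (inactive) applies otherwise.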

OR2J3 [2] = system: OR2J3; remark: listed apart in the source
In short: as §1

OR2K2 (Homo sapiens) = molecular target: T1, OR2K2 (Homo sapiens) (UniProt Q8NGT1)
T1 sequence (whole entry): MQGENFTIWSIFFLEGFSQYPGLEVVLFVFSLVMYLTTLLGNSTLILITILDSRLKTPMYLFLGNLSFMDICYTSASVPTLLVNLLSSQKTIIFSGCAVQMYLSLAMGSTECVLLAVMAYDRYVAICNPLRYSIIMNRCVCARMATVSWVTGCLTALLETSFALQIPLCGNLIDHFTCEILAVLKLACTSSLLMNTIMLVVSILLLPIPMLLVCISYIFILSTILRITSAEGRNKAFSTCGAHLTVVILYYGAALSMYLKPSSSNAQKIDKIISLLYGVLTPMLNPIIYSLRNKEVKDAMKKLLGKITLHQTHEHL
In short: as §1

OR2L13 (Homo sapiens) = molecular target: T2, OR2L13 (Homo sapiens) (UniProt Q8N349)
T2 sequence (whole entry): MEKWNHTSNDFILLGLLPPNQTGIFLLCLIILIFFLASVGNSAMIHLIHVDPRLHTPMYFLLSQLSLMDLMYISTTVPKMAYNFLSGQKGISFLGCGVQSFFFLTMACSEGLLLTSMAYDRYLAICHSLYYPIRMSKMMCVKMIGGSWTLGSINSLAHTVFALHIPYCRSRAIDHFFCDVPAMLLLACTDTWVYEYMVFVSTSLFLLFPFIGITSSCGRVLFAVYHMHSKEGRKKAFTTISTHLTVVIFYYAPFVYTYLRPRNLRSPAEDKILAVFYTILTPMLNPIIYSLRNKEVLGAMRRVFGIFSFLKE
In short: as §1

OR2L2 (Homo sapiens) = molecular target: T3, OR2L2 (Homo sapiens) (UniProt Q8NH16)
T3 sequence (whole entry): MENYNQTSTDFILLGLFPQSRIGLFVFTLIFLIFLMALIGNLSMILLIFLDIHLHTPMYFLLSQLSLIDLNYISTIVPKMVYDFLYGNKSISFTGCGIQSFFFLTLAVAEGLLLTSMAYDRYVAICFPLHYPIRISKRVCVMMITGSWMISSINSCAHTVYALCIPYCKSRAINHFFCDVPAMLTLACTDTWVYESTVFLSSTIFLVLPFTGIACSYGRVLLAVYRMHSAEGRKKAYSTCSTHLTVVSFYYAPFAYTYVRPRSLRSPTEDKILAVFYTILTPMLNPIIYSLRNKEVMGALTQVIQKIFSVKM
In short: as §1

OR2L3 = system: T4, OR2L3
T4 sequence (whole entry): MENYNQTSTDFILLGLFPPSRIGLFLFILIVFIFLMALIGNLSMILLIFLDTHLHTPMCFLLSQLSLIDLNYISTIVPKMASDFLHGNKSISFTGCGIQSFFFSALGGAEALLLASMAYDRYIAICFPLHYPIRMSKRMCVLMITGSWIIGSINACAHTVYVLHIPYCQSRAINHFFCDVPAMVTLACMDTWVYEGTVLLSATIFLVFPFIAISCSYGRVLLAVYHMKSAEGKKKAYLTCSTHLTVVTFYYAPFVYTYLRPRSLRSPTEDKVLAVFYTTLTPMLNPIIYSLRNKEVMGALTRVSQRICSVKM
In short: as §1

OR2L5 (Homo sapiens) = molecular target: T5, OR2L5 (Homo sapiens) (UniProt Q8NG80)
T5 sequence (whole entry): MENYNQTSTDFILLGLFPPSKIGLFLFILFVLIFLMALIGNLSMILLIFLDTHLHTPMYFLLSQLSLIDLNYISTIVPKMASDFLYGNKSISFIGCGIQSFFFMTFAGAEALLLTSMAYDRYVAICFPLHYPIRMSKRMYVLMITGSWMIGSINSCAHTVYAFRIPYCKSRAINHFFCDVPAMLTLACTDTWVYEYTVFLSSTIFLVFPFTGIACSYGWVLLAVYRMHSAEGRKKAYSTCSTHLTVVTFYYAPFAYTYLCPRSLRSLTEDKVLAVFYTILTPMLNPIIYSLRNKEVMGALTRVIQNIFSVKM
In short: as §1

OR2L8 = system: T6, OR2L8
T6 sequence (whole entry): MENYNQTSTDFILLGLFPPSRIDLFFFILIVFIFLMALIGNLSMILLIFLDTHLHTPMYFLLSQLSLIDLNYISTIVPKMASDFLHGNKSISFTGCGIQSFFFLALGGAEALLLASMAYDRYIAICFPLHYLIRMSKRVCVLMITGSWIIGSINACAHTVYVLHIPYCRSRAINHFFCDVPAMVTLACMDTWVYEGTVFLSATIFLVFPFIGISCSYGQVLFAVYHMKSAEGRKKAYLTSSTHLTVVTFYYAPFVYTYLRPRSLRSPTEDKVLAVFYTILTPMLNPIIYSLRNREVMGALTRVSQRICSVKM
In short: as §1

OR2M2 [3] = system: T7, OR2M2
T7 sequence (whole entry): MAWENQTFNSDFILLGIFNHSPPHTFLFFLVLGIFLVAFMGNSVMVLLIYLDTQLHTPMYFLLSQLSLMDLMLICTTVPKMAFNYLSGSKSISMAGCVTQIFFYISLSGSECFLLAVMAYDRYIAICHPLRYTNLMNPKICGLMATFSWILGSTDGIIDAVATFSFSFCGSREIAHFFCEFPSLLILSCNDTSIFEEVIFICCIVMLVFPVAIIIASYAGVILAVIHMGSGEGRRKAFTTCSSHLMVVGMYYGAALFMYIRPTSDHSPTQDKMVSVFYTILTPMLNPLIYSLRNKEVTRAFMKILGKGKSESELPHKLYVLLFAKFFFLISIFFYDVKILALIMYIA
In short: as §1

OR2M3 (Homo sapiens) = molecular target: T8, OR2M3 (Homo sapiens) (UniProt Q8NG83)
T8 sequence (whole entry): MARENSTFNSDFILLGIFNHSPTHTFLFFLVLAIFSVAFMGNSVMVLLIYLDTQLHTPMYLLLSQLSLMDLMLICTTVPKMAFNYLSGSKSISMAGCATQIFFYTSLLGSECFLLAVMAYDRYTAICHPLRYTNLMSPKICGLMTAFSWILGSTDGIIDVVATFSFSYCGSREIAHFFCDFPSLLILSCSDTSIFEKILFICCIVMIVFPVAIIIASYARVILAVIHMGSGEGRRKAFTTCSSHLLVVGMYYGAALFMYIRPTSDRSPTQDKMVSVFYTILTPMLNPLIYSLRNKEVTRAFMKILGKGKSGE
In short: as §1

OR2M4 (Homo sapiens) = molecular target: T9, OR2M4 (Homo sapiens) (UniProt Q96R27)
T9 sequence (whole entry): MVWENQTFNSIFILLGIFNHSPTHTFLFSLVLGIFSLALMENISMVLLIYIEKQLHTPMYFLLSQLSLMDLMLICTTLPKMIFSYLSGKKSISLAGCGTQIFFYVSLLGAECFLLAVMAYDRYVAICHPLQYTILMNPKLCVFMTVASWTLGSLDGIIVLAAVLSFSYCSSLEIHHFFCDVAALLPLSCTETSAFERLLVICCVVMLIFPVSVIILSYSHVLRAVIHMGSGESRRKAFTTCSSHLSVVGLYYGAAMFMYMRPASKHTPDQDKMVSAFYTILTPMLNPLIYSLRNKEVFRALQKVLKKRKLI
In short: as §1

OR2J3 [4] = system: T10, OR2J3; remark: listed apart in the source
T10 sequence (whole entry): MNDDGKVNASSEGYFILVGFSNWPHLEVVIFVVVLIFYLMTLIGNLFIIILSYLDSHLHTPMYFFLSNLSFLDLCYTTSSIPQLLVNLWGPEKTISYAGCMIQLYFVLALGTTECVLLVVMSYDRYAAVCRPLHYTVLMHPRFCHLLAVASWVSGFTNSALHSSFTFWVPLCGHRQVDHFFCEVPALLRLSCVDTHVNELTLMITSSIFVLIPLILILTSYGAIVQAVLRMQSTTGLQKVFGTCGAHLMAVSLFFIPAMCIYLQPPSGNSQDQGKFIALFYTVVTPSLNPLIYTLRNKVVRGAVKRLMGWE
In short: as §1

OR2J3 [5] = system: T11, OR2J3; remark: listed apart in the source
T11 sequence (whole entry): T10 sequence (whole entry) with Q226R, I261M
In short: as §1

OR2J3 [6] = system: OR2J3; remark: listed apart in the source
In short: as §1

OR2M2 (Homo sapiens) = OR2M2 (Homo sapiens) (UniProt Q96R28)
In short: as §1

OR2M2 [7] = system: OR2M2; remark: listed apart in the source
In short: as §1

OR2M2 [8] = system: OR2M2; remark: listed apart in the source
In short: as §1

Measured: odorant receptor agonist call

CCCCCOC(C)=O
active: OR2J3 [2]
not listed: OR2J3 [4] | OR2J3 [5] | OR2J3 [6] | OR2M2 (Homo sapiens) | OR2M2 [7] | OR2M2 [8]
inactive: all other assays above

CC1COCc2cc3c(cc21)C(C)(C)C(C)C3(C)C (stereo unspecified)
inactive: OR2M3 (Homo sapiens) | OR2M4 (Homo sapiens)
active: OR2K2 (Homo sapiens) | OR2L13 (Homo sapiens) | OR2L2 (Homo sapiens) | OR2L3 | OR2L5 (Homo sapiens) | OR2L8 | OR2M2 [3]

C=CCSCC=C
inactive: OR2K2 (Homo sapiens) | OR2L13 (Homo sapiens) | OR2L2 (Homo sapiens) | OR2L3 | OR2L5 (Homo sapiens) | OR2L8 | OR2M2 [3] | OR2M3 (Homo sapiens) | OR2M4 (Homo sapiens)

c1ccc(Oc2ccccc2)cc1
inactive: OR2K2 (Homo sapiens) | OR2L13 (Homo sapiens) | OR2L2 (Homo sapiens) | OR2L3 | OR2L5 (Homo sapiens) | OR2L8 | OR2M2 [3] | OR2M3 (Homo sapiens) | OR2M4 (Homo sapiens)

CCCCO
inactive: OR2K2 (Homo sapiens) | OR2L13 (Homo sapiens) | OR2L2 (Homo sapiens) | OR2L3 | OR2L5 (Homo sapiens) | OR2L8 | OR2M2 [3] | OR2M3 (Homo sapiens) | OR2M4 (Homo sapiens)

COc1ccccc1O
inactive: OR2K2 (Homo sapiens) | OR2L13 (Homo sapiens) | OR2L2 (Homo sapiens) | OR2L3 | OR2L5 (Homo sapiens) | OR2L8 | OR2M2 [3] | OR2M3 (Homo sapiens) | OR2M4 (Homo sapiens)

CCCCCCCC=CC=O
active: OR2L2 (Homo sapiens) | OR2L3
inactive: OR2K2 (Homo sapiens) | OR2L13 (Homo sapiens) | OR2L5 (Homo sapiens) | OR2L8 | OR2M2 [3] | OR2M3 (Homo sapiens) | OR2M4 (Homo sapiens)

C=CCc1ccc(OC(C)=O)c(OC)c1
inactive: OR2K2 (Homo sapiens) | OR2L13 (Homo sapiens) | OR2L2 (Homo sapiens) | OR2L3 | OR2L8 | OR2M2 [3] | OR2M3 (Homo sapiens) | OR2M4 (Homo sapiens)
active: OR2L5 (Homo sapiens)

C=CCc1ccc(OC)c(OC)c1
inactive: OR2K2 (Homo sapiens) | OR2L13 (Homo sapiens) | OR2L2 (Homo sapiens) | OR2L3 | OR2L5 (Homo sapiens) | OR2L8 | OR2M2 [3] | OR2M3 (Homo sapiens) | OR2M4 (Homo sapiens)

CC1=CCC(C(C)(C)O)CC1 (stereo unspecified)
inactive: OR2K2 (Homo sapiens) | OR2L13 (Homo sapiens) | OR2L2 (Homo sapiens) | OR2L3 | OR2L5 (Homo sapiens) | OR2L8 | OR2M2 [3] | OR2M3 (Homo sapiens) | OR2M4 (Homo sapiens)

CC(=O)OCC=C(C)CCC=C(C)C
active: OR2J3 [4] | OR2J3 [5] | OR2J3 [6] | OR2L5 (Homo sapiens) | OR2M2 [3]
not listed: OR2J3 [1] | OR2J3 [2]
inactive: all other assays above

CC(C)=CCCC(C)=CC=O
inactive: OR2K2 (Homo sapiens) | OR2L13 (Homo sapiens) | OR2L2 (Homo sapiens) | OR2L3 | OR2L5 (Homo sapiens) | OR2L8 | OR2M2 [3] | OR2M3 (Homo sapiens) | OR2M4 (Homo sapiens)
